About 6,100 (1.1%) of roughly 580,000 compounds were called active. Inconclusive results, whose numbers are uncertain, are shown with a selection of clear calls. Calls follow the shape of the dose curve; as a rule, active = well fitted inhibition curve with a large enough effect; inconclusive = small, poorly fitted or top-dose-only effect, or another doubt; inactive = no such curve, though single readings can be large or run the other way. Potencies beside an inconclusive call are fits to weak or partial responses and may not hold up.
biological target: Polyunsaturated fatty acid lipoxygenase ALOX12 (Homo sapiens) (UniProt P18054); assay: Primary qHTS assay for inhibitors of human arachidonate 12S-lipoxygenase (ALOX12): Round 2; conditions: purified 12hLO, xylenol orange hydroperoxide absorbance; activity change, negative = inhibition: at 108 µM (top of the series) unless noted
How it was run: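 Purified human 12hLO (150 nM final) in 25 mM Hepes, 0.01% Triton X-100, pH 7.0 was preincubated 15 min at room temperature with compound. Then 40 uM arachidonic acid was added, 30 min. Hydroperoxide was read by Fe-XO absorbance ratio 573/405 nm.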
% is scaled to controls: 0 for no effect and ±100 for the full control effect; potency is read from the fitted curve at half-maximal effect.

Protein sequences, listed by entry. Tags and fused reporters are not part of them. Lines headed by an entry give the natural chain unless they say otherwise; changes in a name come on top.
UniProt P18054: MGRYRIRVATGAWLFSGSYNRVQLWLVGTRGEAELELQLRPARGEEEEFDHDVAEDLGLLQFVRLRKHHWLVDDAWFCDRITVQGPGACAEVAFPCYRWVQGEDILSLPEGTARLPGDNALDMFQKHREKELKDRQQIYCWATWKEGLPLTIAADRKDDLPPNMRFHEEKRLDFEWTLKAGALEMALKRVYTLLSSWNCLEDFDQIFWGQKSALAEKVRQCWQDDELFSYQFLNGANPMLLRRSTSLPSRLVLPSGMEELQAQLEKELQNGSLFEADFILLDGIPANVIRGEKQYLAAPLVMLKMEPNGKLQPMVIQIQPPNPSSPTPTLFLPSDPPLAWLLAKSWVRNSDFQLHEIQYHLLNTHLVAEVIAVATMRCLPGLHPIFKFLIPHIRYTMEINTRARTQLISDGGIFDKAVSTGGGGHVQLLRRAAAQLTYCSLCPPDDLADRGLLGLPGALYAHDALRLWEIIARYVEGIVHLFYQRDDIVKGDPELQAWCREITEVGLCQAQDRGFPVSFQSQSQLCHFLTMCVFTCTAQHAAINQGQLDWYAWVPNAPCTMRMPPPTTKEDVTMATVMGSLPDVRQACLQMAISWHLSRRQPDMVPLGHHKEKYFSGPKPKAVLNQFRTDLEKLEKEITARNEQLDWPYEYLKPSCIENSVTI

| SMILES | Potency | activity change, negative = inhibition |
| --- | --- | --- |
| CCOC(=O)C1CCN(C(c2cc3ccc(C)cc3[nH]c2=O)c2nnnn2C2CCCCC2)CC1 (stereo not drawn) | inconclusive: 50.1 µM [inhibitor, partial curve, poor fit] | – |
| COC(=O)c1c(-c2ccc(F)cc2)csc1NC(=O)C1CCCO1 (stereo not drawn) | – | inactive: 0% |
| O=C(/C=C/c1cc(Cl)cc(Cl)c1O)c1ccccc1 | inconclusive: 0.251 µM [inhibitor, full curve, poor fit] | – |
| CN(C)c1ccc(NS(=O)(=O)c2ccc(Cl)cc2)cc1 | inconclusive: 56.2 µM [inhibitor, partial curve, poor fit] | – |
| CC(/C=C/c1ccc2c(c1)OCO2)=N/NC(=O)c1ccc(C)nc1 | – | inactive: 26.5% |
| Cc1cc(C)cc(-c2nnc(SCc3nc4ccccc4o3)o2)c1 | inconclusive: 44.7 µM [inhibitor, partial curve, poor fit] | – |
| COc1cccc(-n2c(SC)nnc2C2CCN(Cc3cccc(OC)c3O)CC2)c1 | inconclusive: 141 µM [inhibitor, single point] | – |
| Cc1cccc(CNc2nc(-c3ccc(C(=O)N(C)C)cc3)nc3ccccc23)c1 | inconclusive: 89.1 µM [inhibitor, partial curve, poor fit] | – |
| CC(C)c1ccc(OCC(=O)NC(=S)Nc2ccc3c4c(cccc24)CC3)cc1 | inconclusive: 10 µM [inhibitor, full curve, poor fit] | – |
| Cc1ccccc1NS(=O)(=O)c1ccc(F)cc1 | – | inactive: -18.5% |
| Cc1ccc(-c2nc3ncccc3o2)cc1NC(=O)c1ccccc1 | – | inactive: 141% |
| Cc1cccc(OCC(=O)Nc2cc(-c3nc4ccccc4o3)ccc2C)c1 | inconclusive: 112 µM [inhibitor, single point] | – |
| O=c1[nH]cnc2c1sc1nc(-c3ccccc3)c3c(c12)CCCC3 | – | inactive: -1.03% |
| COc1ccc2c(c1)CCCN2C(=O)c1cc2ccc(F)cc2nc1C | – | inconclusive: -32.5% [inhibitor] |
| CNc1nc(-c2cccc(C(=O)N(C)C)c2)cn2ccnc12 | inconclusive: 1.12 µM [inhibitor, partial curve, poor fit] | – |
| COc1ccc2c(c1)OC[C@H]1[C@@H]2N2C(=O)[C@@H](C)NC(=O)[C@@]2(C)[C@H]1c1ccccc1 | inconclusive: 100 µM [inhibitor, single point] | – |
| COc1ccc(-c2noc(C(=O)O)c2[C@@H](C)NC(=O)c2cccnc2)cc1 | inconclusive: 12.6 µM [inhibitor, full curve] | – |
| CC(Cl)C(=O)NNC(=O)CNS(=O)(=O)c1ccccc1 (stereo not drawn) | – | inactive: 3.04% |
| O=C(CSc1nnnn1-c1ccccc1)c1cc2ccccc2oc1=O | – | inactive: 84.6% |
| CCn1c(N2CCN(CC(=O)c3c(C)n(C)c4ccccc34)CC2)nc2c1c(=O)[nH]c(=O)n2C | inconclusive: 50.1 µM [inhibitor, partial curve, poor fit] | – |
| Cc1c(C(=O)NC2CCN(Cc3ccccc3)C2)oc2ccc(Br)cc12 (stereo not drawn) | inconclusive: 50.1 µM [inhibitor, partial curve, poor fit] | – |
| Cn1cc(C(=O)N2CCC(OC3CCN(S(C)(=O)=O)CC3)CC2)cn1 | – | inactive: 47.6% |
| CC(=O)N(c1cccc(C)c1)c1nc(CSc2nnc(C)n2C2CC2)cs1 | inconclusive: 112 µM [inhibitor, single point] | – |

In another format: 2 of the compounds above
SMILES | Potency | activity change, negative = inhibition
O=C(CSc1nnnn1-c1ccccc1)c1cc2ccccc2oc1=O | – | inactive: 84.6%
CCn1c(N2CCN(CC(=O)c3c(C)n(C)c4ccccc34)CC2)nc2c1c(=O)[nH]c(=O)n2C | inconclusive: 50.1 µM [inhibitor, partial curve, poor fit] | –

Later entries.

| SMILES | Potency | activity change, negative = inhibition |
| --- | --- | --- |
| CC[C@@]1(O)C(=O)OCc2c1cc1n(c2=O)Cc2cc3c(CN(C)C)c(O)ccc3nc2-1 | inconclusive: 24.3 µM [inhibitor, single point] | – |
| CC(CN1CCN(C/C=C/c2ccccc2)CC1)c1ccccc1 (stereo not drawn) | active: 0.794 µM | – |
| COc1ccccc1NC(=O)NNC(=O)COc1ccc2ccccc2c1 | – | inactive: 5.35% |
| CCOC(=O)c1cc(-c2ccc(C)cc2)n(CCCC(=O)Nc2cc(C)ccc2C)c1 | – | inconclusive: -32.6% [inhibitor] |
| CCC(Sc1nncn1C)C(=O)Nc1nnc(-c2ccc(Cl)cc2)s1 (stereo not drawn) | inconclusive: 50.1 µM [inhibitor, partial curve, poor fit] | – |
| CC(=O)Nc1cccc(C)c1 | inconclusive: 158 µM [inhibitor, partial curve, poor fit] | – |
| O=C(O)c1ccc(Cl)c(S(=O)(=O)NC(Cc2c[nH]c3ccccc23)C(=O)O)c1 (stereo not drawn) | inconclusive: 35.5 µM [inhibitor, single point] | – |
| COc1cc(S(=O)(=O)N(Cc2ccccn2)Cc2ccccc2Cl)ccc1-n1cnnn1 | – | inactive: -1.68% |
| Cc1ccc(C(=O)CSC2=C(C#N)C(c3ccco3)CC(=O)N2)c(C)c1 (stereo not drawn) | active: 50.1 µM | – |
| CCOC(=O)C1=C(CC)Nc2ccccc2N=C1NC(=O)Nc1ccc(Cl)c(Cl)c1 | inconclusive: 141 µM [inhibitor, partial curve, poor fit] | – |
| CC(C(=O)Nc1ccc(F)c(F)c1)N1CCN(C)CC1 (stereo not drawn) | inconclusive: 0.316 µM [inhibitor, full curve, poor fit] | – |
| COc1ccc(NS(=O)(=O)c2ccc(NC(=S)NC(=O)/C=C/c3ccc(C)cc3)cc2)nn1 | inconclusive: 8.91 µM [inhibitor, full curve] | – |
| COCc1nnc([C@@H]2CC(F)(F)CN2C(=O)Cc2ccccc2C)o1 | – | inactive: 16.3% |
| Oc1ccc(C[C@H]2CN([C@@H](Cc3ccccc3)CN3CCCC3CN3C(=S)NC[C@@H]3Cc3ccccc3)C(=S)N2CC2CCCCC2)cc1 (stereo partly drawn) | – | inactive: 0% |
| O=C(O)CCSc1nnc(-c2ccncc2)n1-c1ccccc1 | – | inactive: 0% |
| COc1ccc(N=Cc2c(O)[nH]c3ccccc23)cc1OC | inconclusive: 63.1 µM [inhibitor, partial curve, poor fit] | – |
| COCCCn1c(=N)c(C(=O)NC2CCCC2)cc2c(=O)n3cccc(C)c3nc21 | inconclusive: 44.7 µM [inhibitor, partial curve, poor fit] | – |
| Cc1ccc(S(=O)(=O)Nc2cc([N+](=O)[O-])c([N+](=O)[O-])cc2NS(=O)(=O)c2ccc(C)cc2)cc1 | inconclusive: 11.2 µM [inhibitor, full curve, poor fit] | – |
| O=C(NC1CC(=O)N(c2ccccc2)C1)C(=O)c1c[nH]c2ccccc12 (stereo not drawn) | inconclusive: 44.7 µM [inhibitor, partial curve, poor fit] | – |
| CCCC/C(C)=N/NC(=O)CN(c1ccc(Br)cc1)S(=O)(=O)c1ccccc1 | – | inactive: 15% |
| CN1CC(=O)N(C2CCCNC2)Cc2c1ncnc2N1CCN(Cc2ccccc2)CC1 (stereo not drawn) | inconclusive: 7.94 µM [inhibitor, full curve, poor fit] | – |
| COc1ccc(CC(=O)NC(C)c2nnc(SCC(=O)c3ccc(Cl)cc3)n2C)cc1 (stereo not drawn) | inconclusive: 100 µM [inhibitor, partial curve, poor fit] | – |
| CC(C)CNC(=O)C1CCN(Cc2ccc(OCc3ccccc3)cc2)CC1 | inconclusive: 15.8 µM [inhibitor, partial curve] | – |

Filtered by structure, those above containing a furan ring, fused or not

| SMILES | Potency | activity change, negative = inhibition |
| --- | --- | --- |
| Cc1c(C(=O)NC2CCN(Cc3ccccc3)C2)oc2ccc(Br)cc12 (stereo not drawn) | inconclusive: 50.1 µM [inhibitor, partial curve, poor fit] | – |
| Cc1ccc(C(=O)CSC2=C(C#N)C(c3ccco3)CC(=O)N2)c(C)c1 (stereo not drawn) | active: 50.1 µM | – |

Later entries

| SMILES | Potency | activity change, negative = inhibition |
| --- | --- | --- |
| O=C(O)C(=O)Nc1ccc(NC(=O)C(c2ccccc2)c2ccccc2)cc1 | inconclusive: 25.1 µM [inhibitor, partial curve, poor fit] | – |
| CC(C)=CCCC(C)CN1CCC(O)CC1 (stereo not drawn) | inconclusive: 1.58 µM [inhibitor, full curve, poor fit] | – |
| CC1CC(C)(C)N(C(=O)CN2CCN(C)CC2)c2ccccc21 (stereo not drawn) | – | inactive: -7.15% |
| CCC(=O)N1CCC(Oc2ccc(C(=O)N3CCOCC3)cn2)C1 (stereo not drawn) | – | inactive: 31.2% |
| CCS(=O)(=O)c1ccc2oc(Nc3ccc(OC(F)(F)F)cc3)nc2c1 | – | inactive: 6.88% |
| COc1ccccc1-c1ccccc1C1=CC(=O)CC(C)(C)C1=O | – | inactive: -7.14% |
| Cc1cc(=O)oc2cc(OCC(=O)NCCCn3ccnc3)c(Cl)cc12 | – | inactive: 4.44% |
| O=C(/C=C/Nc1ccc(Cl)c(C(F)(F)F)c1)c1ccccc1 | inconclusive: 39.8 µM [inhibitor, partial curve, poor fit] | – |
| CC1(C)CC(=O)C2=C(C1)N(c1ccc(F)cc1)C(N)=C(C#N)C2c1cccs1 (stereo not drawn) | – | inactive: 267% |
| CC1C(=O)CCN(CCCO)C1C (stereo not drawn) | inconclusive: 56.2 µM [inhibitor, partial curve, poor fit] | – |
| Cc1cc(Nc2cc(CN3CCOCC3)c3nc(C)c(Cc4ccc(Cl)cc4F)n3n2)n[nH]1 | inconclusive: 38.5 µM [inhibitor, single point] | – |
| CCCCNC(=O)c1onc(CSc2ccc(F)c(F)c2)c1C(=O)NCCCC | inconclusive: 50.1 µM [inhibitor, partial curve, poor fit] | – |
| CC[N+]1(CC)CC2CCC(C)(C1)C2(C)C (stereo not drawn) | active: 44.7 µM | – |
| Nc1scc(-c2ccncc2)c1Cl | inconclusive: 44.7 µM [inhibitor, partial curve, poor fit] | – |
| O=c1cc(CN2CCCCC2)c2c(ccc3ccccc32)o1 | inconclusive: 50.1 µM [inhibitor, partial curve, poor fit] | – |
| CC(C)c1ccc(/C=N/N2CCCCC2)cc1 | inconclusive: 2.82 µM [inhibitor, full curve, poor fit] | – |
| CCc1nc(-c2c3n(c(=O)n(Cc4cc(F)cc(F)c4)c2=O)CCCCC3)no1 | inconclusive: 17.8 µM [inhibitor, single point] | – |
| Cc1ccc(-c2ccc([C@H]3[C@@H]4C=CCC[C@@]4(C)C(=O)N3Cc3ccccc3)c(F)c2)cc1 | – | inactive: -24.2% |
| Cc1ccccc1-c1nnc(CN2CCC(C)CC2)o1 | inconclusive: 35.5 µM [inhibitor, partial curve, poor fit] | – |
| CC1CCc2c(sc(NC(=S)NC(=O)c3ccccc3)c2C#N)C1 (stereo not drawn) | – | inactive: -9.5% |
| CCC1CCCCN1C(=O)Cn1c(=O)oc2ccccc21 (stereo not drawn) | inconclusive: 6.31 µM [inhibitor, partial curve, poor fit] | – |
| COc1ccc(N2CCN(C(=O)c3cc4ccccc4o3)CC2)cc1 | inconclusive: 126 µM [inhibitor, partial curve, poor fit] | – |

Source: PubChem BioAssay AID1671190 (National Center for Advancing Translational Sciences (NCATS), 2021)
